According to PMC10549964:
These are yes or no findings as the source states them, for the method shown. In cells and extracts the contact can be indirect. Some results given as binding are weak or reduced against the parent protein; the word gives no strength.

Chains of the proteins cited; added tags and fusions are not shown.
UniProt Q13490: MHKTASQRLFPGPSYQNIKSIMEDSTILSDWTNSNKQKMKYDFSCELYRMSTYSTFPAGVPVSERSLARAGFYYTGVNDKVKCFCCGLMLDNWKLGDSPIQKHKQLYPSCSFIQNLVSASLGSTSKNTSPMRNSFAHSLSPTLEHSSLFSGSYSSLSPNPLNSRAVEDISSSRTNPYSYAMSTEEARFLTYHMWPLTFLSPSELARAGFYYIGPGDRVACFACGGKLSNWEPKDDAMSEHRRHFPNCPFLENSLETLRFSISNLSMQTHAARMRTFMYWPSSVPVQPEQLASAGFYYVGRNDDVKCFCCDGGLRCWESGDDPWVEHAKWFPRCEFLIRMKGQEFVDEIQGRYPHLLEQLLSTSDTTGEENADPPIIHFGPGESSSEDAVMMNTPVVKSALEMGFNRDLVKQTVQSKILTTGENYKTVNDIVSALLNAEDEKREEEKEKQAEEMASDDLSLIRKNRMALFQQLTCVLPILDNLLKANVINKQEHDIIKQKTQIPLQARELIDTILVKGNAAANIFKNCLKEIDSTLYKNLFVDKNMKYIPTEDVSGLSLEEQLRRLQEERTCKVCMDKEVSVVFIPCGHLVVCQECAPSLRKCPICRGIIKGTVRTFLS

Molecular target: baculoviral IAP repeat-containing 2 (BIRC2) (human (endogenous in C28/I2)) (UniProt Q13490)
Experiment: co-IP; RIPA lysate of cells incubated with anti-IgG antibody and anti-BIRC2/anti-TRADD antibody, protein A/G PLUS-Agarose beads, western blot with anti-TRADD and anti-BIRC2 antibodies

B1: tumor necrosis factor receptor 1-associated death domain protein (TRADD) (protein, UniProt Q15628 1-312)
chain: MAAGQNGHEEWVGSAYLFVESSLDKVVLSDAYAHPQQKVAVYRALQAALAESGGSPDVLQMLKIHRSDPQLIVQLRFCGRQPCGRFLRAYREGALRAALQRSLAAALAQHSVPLQLELRAGAERLDALLADEERCLSCILAQQPDRLRDEELAELEDALRNLKCGSGARGGDGEVASAPLQPPVPSLSEVKPPPPPPPAQTFLFQGQPVVNRPLSLKDQQTFARSVGLKWRKVGRSLQRGCRALRDPALDSLAYEYEREGLYEQAFQLLRRFVQAEGRRATLQRLVEALEENELTSLAEDLLGLTDPNGGLA
  binding: binds
